# Test results: patent US10857199B2, “Compounds and methods for increasing hair growth” (The University of Kansas, priority 2014, dated 2020)
# At least one structure is not confirmed: it was looked up by name or label, or the drawing left a doubt.
# System: hair growth
# Assay: Hair growth in anagen induced depilated mice, topical liposome formulation, pixel quantitation
# Type: in vivo, mice (C57BL/6)
# Details: daily topical treatment
structure (smiles),measurement,setting,value
Nc1cc(N2CCCCC2)nc(N)[n+]1[O-] [minoxidil],hair density/growth (digital pixel quantitation of contrast-images),GelQuant.Net,no significant difference
same,hair growth,vs empty liposome vehicle,not appreciably different to vehicle treated mice
